Reference: patent US20080027145A1 (priority 2004, published 2008)
Plain letter strings leave the end groups untold.

Assay: peptide made by a vendor
Settings: whole synthesis

HRAEVQIARKLQCIADQFHRLHTQ
final purity (method not given): 85%
